Where two headings read alike, the source gives them in different places. Results are given in words; binding and its absence hold for the method and conditions named. Binding seen in cells or lysates may run through a third protein. Some results given as binding are weak or reduced against the parent protein; the word gives no strength.
Tests used:
Experiment in all cases: co-IP
[1] = molecular target: endogenous SP140 (wild-type) (human (endogenous in THP1 and LBL)) (UniProt Q13342)
[2] = molecular target: FLAG-tagged human SP140 (Speckled Protein 140) (human) (UniProt Q13342)
[3] = molecular target: endogenous SP140 (wild-type) (human (endogenous in THP1 and LBL)) (UniProt Q13342); remark: listed apart in the source
[4] = molecular target: DNA-dependent protein kinase (DNA-PK) (human (endogenous in HEK293T, THP1, LBL)) (UniProt P78527)
[5] = molecular target: FACT complex subunit SSRP1 (SSRP1) (human (endogenous in HEK293T, THP1, LBL)) (UniProt Q08945)
[6] = molecular target: Facilitates chromatin transcription (FACT) complex subunit SPT16 (SUPT16H) (human (endogenous in HEK293T, THP1, LBL)) (UniProt Q9Y5B9)
[7] = molecular target: Topoisomerase I (TOP1) (human (endogenous in HEK293T, THP1, LBL)) (UniProt P11387)
[8] = molecular target: Topoisomerase II alpha (TOP2A) (human (endogenous in HEK293T, THP1, LBL)) (UniProt P11388)
[9] = molecular target: FLAG-tagged human SP140 (Speckled Protein 140) (human) (UniProt Q13342); remark: listed apart in the source
[10] = molecular target: HA-Aire (Autoimmune Regulator, AIRE) (UniProt O43918)

The chains behind the UniProt entries cited, without tags or fusion partners.
UniProt Q13342, whole entry: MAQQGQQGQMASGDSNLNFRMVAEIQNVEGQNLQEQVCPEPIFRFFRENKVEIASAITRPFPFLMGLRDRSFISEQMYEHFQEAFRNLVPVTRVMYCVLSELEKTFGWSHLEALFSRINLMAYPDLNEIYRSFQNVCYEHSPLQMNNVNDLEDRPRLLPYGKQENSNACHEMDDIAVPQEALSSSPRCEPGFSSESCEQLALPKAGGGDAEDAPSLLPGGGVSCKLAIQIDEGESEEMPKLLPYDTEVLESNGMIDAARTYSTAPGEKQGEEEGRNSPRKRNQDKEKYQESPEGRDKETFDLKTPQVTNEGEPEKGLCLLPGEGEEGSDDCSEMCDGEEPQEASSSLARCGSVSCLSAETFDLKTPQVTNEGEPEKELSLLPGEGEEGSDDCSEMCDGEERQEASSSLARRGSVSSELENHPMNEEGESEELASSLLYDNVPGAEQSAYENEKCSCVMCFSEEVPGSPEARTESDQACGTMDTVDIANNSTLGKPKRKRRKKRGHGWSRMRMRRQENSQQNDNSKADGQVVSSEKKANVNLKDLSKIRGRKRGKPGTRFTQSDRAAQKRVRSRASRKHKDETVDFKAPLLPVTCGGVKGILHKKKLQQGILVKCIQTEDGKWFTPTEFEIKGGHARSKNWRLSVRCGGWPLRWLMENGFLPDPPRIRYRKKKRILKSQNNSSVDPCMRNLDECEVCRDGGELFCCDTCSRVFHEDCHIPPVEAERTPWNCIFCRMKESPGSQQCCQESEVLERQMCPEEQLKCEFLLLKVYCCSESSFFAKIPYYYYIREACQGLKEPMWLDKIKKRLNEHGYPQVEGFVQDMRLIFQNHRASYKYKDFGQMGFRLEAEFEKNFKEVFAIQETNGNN
UniProt P78527, whole entry: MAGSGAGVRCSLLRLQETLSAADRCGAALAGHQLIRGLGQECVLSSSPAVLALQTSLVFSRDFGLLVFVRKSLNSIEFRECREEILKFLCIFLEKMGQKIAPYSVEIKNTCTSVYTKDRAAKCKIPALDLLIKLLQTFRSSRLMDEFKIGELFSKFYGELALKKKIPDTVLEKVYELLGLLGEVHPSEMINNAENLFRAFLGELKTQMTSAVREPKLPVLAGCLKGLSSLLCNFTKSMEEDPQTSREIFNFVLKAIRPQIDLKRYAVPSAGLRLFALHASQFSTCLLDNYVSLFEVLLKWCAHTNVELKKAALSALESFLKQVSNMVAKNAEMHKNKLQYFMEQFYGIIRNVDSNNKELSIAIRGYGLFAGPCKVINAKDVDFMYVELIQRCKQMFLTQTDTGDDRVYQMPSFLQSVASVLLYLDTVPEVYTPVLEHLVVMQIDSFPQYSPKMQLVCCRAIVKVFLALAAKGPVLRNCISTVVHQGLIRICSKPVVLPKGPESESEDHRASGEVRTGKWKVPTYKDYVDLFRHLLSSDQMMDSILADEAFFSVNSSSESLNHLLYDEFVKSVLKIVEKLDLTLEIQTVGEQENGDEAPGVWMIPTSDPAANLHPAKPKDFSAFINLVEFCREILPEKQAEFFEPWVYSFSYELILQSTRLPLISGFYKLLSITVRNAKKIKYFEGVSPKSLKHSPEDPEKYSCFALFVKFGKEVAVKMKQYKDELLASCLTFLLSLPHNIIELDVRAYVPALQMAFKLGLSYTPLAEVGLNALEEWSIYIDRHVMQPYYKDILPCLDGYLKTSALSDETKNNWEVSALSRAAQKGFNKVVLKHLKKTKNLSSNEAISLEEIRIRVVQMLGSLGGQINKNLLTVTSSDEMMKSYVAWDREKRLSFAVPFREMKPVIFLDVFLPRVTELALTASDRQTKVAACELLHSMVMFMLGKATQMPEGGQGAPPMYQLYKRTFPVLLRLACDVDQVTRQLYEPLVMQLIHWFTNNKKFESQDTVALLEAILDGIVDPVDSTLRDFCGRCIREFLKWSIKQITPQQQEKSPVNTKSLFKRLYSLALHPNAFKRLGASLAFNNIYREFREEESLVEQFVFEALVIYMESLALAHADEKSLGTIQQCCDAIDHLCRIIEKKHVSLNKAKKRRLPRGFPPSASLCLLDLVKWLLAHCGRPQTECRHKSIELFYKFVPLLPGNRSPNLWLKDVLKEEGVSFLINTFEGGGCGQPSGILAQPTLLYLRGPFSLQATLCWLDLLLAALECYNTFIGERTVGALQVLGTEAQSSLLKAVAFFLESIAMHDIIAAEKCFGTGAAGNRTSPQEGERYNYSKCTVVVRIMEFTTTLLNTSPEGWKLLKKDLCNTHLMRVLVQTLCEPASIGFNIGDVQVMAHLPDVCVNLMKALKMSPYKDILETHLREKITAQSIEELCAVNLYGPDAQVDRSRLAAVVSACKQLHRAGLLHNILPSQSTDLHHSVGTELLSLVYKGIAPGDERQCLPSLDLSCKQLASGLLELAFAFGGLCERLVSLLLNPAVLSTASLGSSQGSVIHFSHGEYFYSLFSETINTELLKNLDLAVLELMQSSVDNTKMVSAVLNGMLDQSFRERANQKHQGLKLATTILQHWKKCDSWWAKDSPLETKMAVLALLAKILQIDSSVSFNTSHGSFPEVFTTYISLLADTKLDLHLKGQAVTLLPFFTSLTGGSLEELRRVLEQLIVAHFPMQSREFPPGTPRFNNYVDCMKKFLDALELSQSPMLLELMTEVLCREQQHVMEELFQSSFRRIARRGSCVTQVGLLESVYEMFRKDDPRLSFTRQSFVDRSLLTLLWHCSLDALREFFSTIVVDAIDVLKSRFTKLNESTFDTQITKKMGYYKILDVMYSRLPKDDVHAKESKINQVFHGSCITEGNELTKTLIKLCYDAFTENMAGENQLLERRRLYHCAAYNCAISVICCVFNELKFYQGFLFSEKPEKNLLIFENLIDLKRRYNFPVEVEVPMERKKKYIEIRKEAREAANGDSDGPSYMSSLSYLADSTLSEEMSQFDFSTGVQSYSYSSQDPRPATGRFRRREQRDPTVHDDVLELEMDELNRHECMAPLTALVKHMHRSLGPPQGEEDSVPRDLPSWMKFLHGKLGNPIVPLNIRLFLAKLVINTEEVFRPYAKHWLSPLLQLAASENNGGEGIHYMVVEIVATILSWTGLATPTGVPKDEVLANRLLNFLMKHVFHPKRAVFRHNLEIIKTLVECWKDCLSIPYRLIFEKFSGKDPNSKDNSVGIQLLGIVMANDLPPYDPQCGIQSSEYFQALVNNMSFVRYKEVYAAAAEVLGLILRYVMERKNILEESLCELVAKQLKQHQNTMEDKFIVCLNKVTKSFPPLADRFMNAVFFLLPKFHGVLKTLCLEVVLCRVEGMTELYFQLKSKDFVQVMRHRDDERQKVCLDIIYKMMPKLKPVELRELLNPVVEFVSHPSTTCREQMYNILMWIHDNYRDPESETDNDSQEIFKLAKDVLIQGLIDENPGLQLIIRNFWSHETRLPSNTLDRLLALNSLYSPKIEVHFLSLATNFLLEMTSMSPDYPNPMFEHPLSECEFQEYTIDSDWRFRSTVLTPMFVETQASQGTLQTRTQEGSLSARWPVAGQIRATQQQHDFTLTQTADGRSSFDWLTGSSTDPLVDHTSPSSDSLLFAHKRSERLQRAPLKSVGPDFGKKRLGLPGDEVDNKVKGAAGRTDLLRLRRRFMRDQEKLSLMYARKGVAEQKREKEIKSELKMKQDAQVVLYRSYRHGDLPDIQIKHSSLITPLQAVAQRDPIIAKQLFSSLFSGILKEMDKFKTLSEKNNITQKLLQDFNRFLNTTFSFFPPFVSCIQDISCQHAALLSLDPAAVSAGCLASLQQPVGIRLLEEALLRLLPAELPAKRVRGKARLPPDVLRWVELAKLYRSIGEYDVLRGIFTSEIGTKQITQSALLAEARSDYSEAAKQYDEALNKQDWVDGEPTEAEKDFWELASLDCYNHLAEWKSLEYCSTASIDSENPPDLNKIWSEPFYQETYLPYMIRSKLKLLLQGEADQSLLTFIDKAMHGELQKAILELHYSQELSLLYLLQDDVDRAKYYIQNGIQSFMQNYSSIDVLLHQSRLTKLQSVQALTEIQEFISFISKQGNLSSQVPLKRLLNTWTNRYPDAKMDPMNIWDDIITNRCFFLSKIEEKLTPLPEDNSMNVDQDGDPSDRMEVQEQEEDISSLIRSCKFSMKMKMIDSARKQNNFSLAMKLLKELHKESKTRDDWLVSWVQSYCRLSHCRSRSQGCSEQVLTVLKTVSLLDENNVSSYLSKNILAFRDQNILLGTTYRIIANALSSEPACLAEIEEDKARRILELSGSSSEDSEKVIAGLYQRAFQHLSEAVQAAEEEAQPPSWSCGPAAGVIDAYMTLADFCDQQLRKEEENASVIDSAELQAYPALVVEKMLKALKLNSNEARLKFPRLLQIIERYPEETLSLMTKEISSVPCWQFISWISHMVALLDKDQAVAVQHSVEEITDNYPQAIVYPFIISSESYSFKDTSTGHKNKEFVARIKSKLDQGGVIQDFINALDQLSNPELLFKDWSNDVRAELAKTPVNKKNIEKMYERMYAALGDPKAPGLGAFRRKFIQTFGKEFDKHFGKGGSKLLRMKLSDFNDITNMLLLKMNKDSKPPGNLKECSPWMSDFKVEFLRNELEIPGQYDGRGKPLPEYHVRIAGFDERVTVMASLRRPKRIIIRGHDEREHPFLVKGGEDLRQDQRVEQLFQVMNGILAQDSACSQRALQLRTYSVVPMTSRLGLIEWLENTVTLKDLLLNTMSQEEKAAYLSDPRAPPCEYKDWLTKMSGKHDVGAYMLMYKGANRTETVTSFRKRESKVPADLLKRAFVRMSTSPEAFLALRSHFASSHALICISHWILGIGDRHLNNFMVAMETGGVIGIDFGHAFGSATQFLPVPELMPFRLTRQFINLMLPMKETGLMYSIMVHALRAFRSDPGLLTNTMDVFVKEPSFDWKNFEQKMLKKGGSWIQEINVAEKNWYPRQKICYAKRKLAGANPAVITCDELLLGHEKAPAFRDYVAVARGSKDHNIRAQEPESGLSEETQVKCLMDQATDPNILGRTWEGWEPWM
UniProt Q9Y5B9, whole entry: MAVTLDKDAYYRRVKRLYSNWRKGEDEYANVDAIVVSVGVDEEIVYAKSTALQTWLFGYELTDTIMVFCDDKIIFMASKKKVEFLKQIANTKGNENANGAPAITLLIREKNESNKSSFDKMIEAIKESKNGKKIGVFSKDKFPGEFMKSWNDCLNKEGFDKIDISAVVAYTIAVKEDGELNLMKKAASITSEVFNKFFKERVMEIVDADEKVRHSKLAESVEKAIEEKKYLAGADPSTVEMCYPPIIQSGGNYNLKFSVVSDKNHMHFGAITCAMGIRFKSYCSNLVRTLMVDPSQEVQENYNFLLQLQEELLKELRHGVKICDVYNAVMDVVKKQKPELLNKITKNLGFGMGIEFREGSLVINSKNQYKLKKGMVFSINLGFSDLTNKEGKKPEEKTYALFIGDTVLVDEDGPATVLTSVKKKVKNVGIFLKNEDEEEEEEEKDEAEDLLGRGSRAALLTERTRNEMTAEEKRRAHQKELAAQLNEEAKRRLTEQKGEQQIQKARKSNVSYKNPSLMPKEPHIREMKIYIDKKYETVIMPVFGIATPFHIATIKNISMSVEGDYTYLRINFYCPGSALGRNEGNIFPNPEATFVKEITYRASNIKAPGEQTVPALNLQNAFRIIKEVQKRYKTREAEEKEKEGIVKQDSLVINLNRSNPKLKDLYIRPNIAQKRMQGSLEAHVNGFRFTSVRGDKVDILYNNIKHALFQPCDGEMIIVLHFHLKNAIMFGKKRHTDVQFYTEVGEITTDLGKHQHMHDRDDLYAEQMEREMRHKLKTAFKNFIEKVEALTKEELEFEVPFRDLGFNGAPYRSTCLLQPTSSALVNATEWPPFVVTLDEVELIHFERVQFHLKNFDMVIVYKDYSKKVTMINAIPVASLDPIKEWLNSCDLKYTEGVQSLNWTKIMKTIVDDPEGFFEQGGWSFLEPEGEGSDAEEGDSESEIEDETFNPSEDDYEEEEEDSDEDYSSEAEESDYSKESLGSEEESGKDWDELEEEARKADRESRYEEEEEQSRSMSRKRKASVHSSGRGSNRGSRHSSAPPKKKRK
UniProt O43918, whole entry: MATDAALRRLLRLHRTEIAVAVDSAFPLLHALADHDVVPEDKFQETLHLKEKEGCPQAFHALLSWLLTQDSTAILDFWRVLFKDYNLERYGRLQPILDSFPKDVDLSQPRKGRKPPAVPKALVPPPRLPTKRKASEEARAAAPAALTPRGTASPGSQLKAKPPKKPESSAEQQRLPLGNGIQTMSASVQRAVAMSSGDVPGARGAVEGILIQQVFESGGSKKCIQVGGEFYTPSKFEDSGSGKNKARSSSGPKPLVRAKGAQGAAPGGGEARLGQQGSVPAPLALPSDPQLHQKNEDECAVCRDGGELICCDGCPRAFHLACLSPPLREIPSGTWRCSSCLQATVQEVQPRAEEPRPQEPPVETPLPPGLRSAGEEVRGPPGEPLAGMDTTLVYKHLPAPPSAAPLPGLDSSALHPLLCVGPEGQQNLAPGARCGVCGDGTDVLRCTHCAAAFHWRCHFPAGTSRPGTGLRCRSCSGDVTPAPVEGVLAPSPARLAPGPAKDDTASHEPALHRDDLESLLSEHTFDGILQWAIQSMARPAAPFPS

Measured: binding

DNA-dependent protein kinase (DNA-PK) (from UniProt P78527 1-4128) (enzyme)
binds: [1] | [2] | [3]

FACT complex subunit SSRP1 (SSRP1) (from UniProt Q08945 1-709)
binds: [1] | [2] | [3]

FLAG-tagged human SP140 (Speckled Protein 140) (from UniProt Q13342 1-867)
binds: [4] | [5] | [6] | [7] | [8]

Facilitates chromatin transcription (FACT) complex subunit SPT16 (SUPT16H) (from UniProt Q9Y5B9 1-1047)
binds: [1] | [2] | [3]

SWI/SNF-related matrix-associated actin-dependent regulator of chromatin subfamily A member 5 (SMARCA5) (from UniProt O60264 1-1052) (enzyme)
binds: [2] | [3]

Topoisomerase I (TOP1) (from UniProt P11387 1-765) (enzyme)
binds: [9] | [10] | [1] | [2] | [3]

Topoisomerase II beta (TOP2B) (from UniProt Q02880 1-1626) (enzyme)
binds: [1] | [2] | [3]
